Laboratory results as given in PubChem BioAssay AID1508600 (Functional Genomics Laboratory (NCATS/FGL), 2020).
Screen size: about 53,000 sequences; about 3,700 (7%) were called active.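 The calls were made as follows: active = gene knockdowns whose robust z-score for IL-1 alpha signal is at least 2 or at most -2, so actives lie on both sides; inactive = the rest.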 This is one part of the list.

Assay: Components of the Cytosolic LPS Sensing Pathway: Gene Identification via Genome-wide siRNA Screen;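 also: robust z of the log signal after scaling to non-targeting control siRNA wells of the plate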
Details: RAW264.7 macrophages, IL-1a HTRF, actives lie on both sides, screened at 100 nM (by protocol), cells primed 5 h with Pam3CSK4 first
Method in brief: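 Three distinct siRNAs per gene were tested singly at 100 nM in RAW264.7 macrophages. Following Pam3CSK4 priming and 24 hour LipidA transfection, IL-1a secretion was read by HTRF.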
With GGCCUUGUGUGCAAUGAGATT against Mfge8 the z-score was inactive: -0.448.
With “GGCUGGACACUUCAAAAUGTT against 4930412M03Rik” the z-score was inactive: -0.988.
With GCCUCCUGUCAAAGGUUCATT against Cd300c the z-score was inactive: 1.69.
With GCCUGCACGAUUGGAAUUATT against Aqr the z-score was inactive: 1.56.
In the case of GGUGUCUUCAGUUAUAGAUTT against Pard6a, the z-score is reported as inactive: -0.203.
For GGAAGGACAAAGAAAGCCUTT against Fbxw4, the z-score was inactive: -0.286.
In the case of GUCAGAGCUUGAGGAGUUCTT against Aurkaip1, the z-score is reported as inactive: 0.783.
In the case of GGACAAUGUGGUAGUGGACTT against Mvb12a, the z-score is reported as inactive: -0.426.
With GGAAGUGACACGAUUUGAGTT against Snx1 the z-score was inactive: -0.804.
For CCACGAGAAGUGGAUAUUATT against Plcxd3, the z-score was inactive: -1.1.
With GGUAGAAAAUGUUUACCCUTT against Gk5 the z-score was inactive: -1.07.
For GGAUCUCUACCAUUUGAUUTT against Rps13, the z-score was inactive: -1.75.
In the case of GGCCGUGAUAGUCAGUGACTT against Teddm1b, the z-score is reported as inactive: 0.912.
In the case of GGAGAAGAGGACUUUGGUGTT against Opalin, the z-score is reported as inactive: 0.234.
For GCACUUAUGCCAGAUUGGCTT against Ifi35, the z-score was inactive: -1.54.
With CCAUUGAUCCCAUGAUCUUTT against Rreb1 the z-score was inactive: 1.33.
With GGACUCCAGACUUGAAACATT against Uchl5 the z-score was inactive: -1.3.
In the case of CCCUAUUCUGCUUUCACUUTT against Sap18, the z-score is reported as inactive: 0.198.
With CGAUUAUGAGCACUAUAUUTT against Ddx20 the z-score was active: 2.12.
In the case of GGAACUUCGACUCUGAGAUTT against Rmnd5b, the z-score is reported as inactive: -0.00387.
In the case of GGCUAUGAGGACUCCUAUGTT against Plekha7, the z-score is reported as active: -2.53.
With CCUAGAGCUGAAGAGAUUATT against Aif1 the z-score was inactive: -0.266.
For AGAGUUGUCCAUGUUCCAGTT against Six3, the z-score was inactive: -1.44.
For CGGAAAAGAUCCCUAUUGUTT against Adam5, the z-score was inactive: 0.373.
With CCAACAACUCUGUAUGCUGTT against Olfr1355 the z-score was inactive: -0.247.
In the case of GGCCCUAACAAUUCAUGAUTT against Uba6, the z-score is reported as inactive: -0.574.
For GGUAGUGGAUGGGAGCUCATT against Thtpa, the z-score was inactive: -0.255.
In the case of GCACUAGUUAGAGAUCUUATT against Stmnd1, the z-score is reported as inactive: 0.842.
With GCUUGUCCUAUCUAUUUUATT against Mthfd2 the z-score was inactive: 0.419.
With CGCAAAAAUCAGCACAGCUTT against Ptp4a3 the z-score was inactive: 1.96.
With GGAGGACUUCUCCUCCUUCTT against Mfsd13a the z-score was inactive: 0.532.
With CCCGAGAUGUAUCAUCUAATT against Krcc1 the z-score was inactive: -0.31.
With GGUCUUGGUCCCUGAGAAATT against Ddit4l the z-score was inactive: 0.23.
In the case of GCAAAACUUAUCUGACCUATT against Smn1, the z-score is reported as inactive: 0.418.
For GCCCUGUGCUUGGCAACAUTT against Ssbp3, the z-score was active: -2.36.
For GCCCGAUAUCGUGUUUUUCTT against Sirt2, the z-score was inactive: 0.826.
For GGUGAACACCUUUAUGAGGTT against Dguok, the z-score was inactive: 0.563.
With “GCCUGACUUUCUUAAAGGCTT against 2810006K23Rik” the z-score was inactive: 0.82.
With GGAUGAACCAAGCUACUGCTT against Gba2 the z-score was inactive: -0.541.
For GGCAAAGAAAACCAUGUCCTT against Zfp82, the z-score was inactive: 1.34.
For GCAGUAAACUCCUAGGUCATT against Mturn, the z-score was inactive: -0.269.
With GGACCUUGGAUUGACAGGUTT against Unkl the z-score was inactive: 0.819.
For GGGUUGUUUACAGUGAUCUTT against Fam126b, the z-score was inactive: -0.43.
With GCUUGUACUGCUAAUACUUTT against Pggt1b the z-score was inactive: 1.9.
In the case of GGAAGUCCAUCAGCUUUAUTT against Wdr78, the z-score is reported as active: 2.29.
In the case of GGCAUUGGUUAAAAAAGUUTT against Otx2, the z-score is reported as inactive: 0.55.
With GCACUUCCUAACUGGUGCUTT against Olfr996 the z-score was inactive: -1.11.
With GGACGAGAUGAACAGCCUCTT against Chkb the z-score was inactive: 0.0671.
In the case of CGGAAUGUCAAUUUAAAGATT against Adam18, the z-score is reported as inactive: 1.63.
In the case of GGCCCUUCCCAGAUAUGCATT against Gm16367, the z-score is reported as inactive: 0.819.
For CGGCCAAUUUGCCUUUCUCTT against Hes1, the z-score was inactive: 1.88.
In the case of GCUUGUAAUGGUUAAUGUATT against Wtap, the z-score is reported as inactive: -0.674.
With UCGAUGUACUGAGCUAAGGTT against Psme2 the z-score was inactive: 1.28.
